Test results from patent US20240400701A1 (LANOVA MEDICINES DEVELOPMENT, published 2024).
Changes are numbered by the printed parent chain. No constants are given. Whether binding was seen depends on the method and setting. Some binding calls cover weakened binding; strength is not graded here.

B1: 94C4C3 H1L1 hIgG1 (antibody, V domains shown)
VH: QLQLQESGPGLVKPSETLSLTCTVSGYSITSDYAWNWIRQPPGKGLEWIGYISYSGSISYNPSLKSRVTISVDTSKNQFSLKLSSVTAADTAVYYCARSRYSWFDYWGQGTLVTVSS
VL: EIVLTQSPGTLSLSPGERATLSCSASESVDTYGNSFMHWYQQKPGQAPRLLIYRASSLESGIPDRFSGSGSGTDFTLTISRLEPEDFAVYYCQQSNEDPYTFGGGTKVEIK
notes: Humanized, human IgG1; also called 94C4C3 H1L1 hlgG1
B2: 108F3D1E9 H1L1 hIgG1 (antibody, V domains shown)
VH: B1 VH with Y33F, Y54F, I58T, D105A
VL: DIQMTQSPSSLSASVGDRVTITCRASESVDTYGNSFMHWYQQKPGKAPKLLIYRASNLESGVPSRFSGSGSGTDFTLTISSLQPEDFATYYCQQSNEDPYTFGGGTKVEIK
notes: Humanized, PTM de-risked VH, human IgG1; also called 108F3D1E9 H1L1 hlgG1
B3: 31D9B3 VH1.3-VL2.2 hIgG1 (antibody, V domains shown)
VH: QVQLVQSGAEVKKPGASVKVSCKASGYTFTDYWVSWVRQAPGQGLEWMGEIYPKNQVSNFNEKFKGRVTMTTDTSTSTAYMELRSLRSDDTAVYYCARQRDYWGQGTLVTVSS
VL: DVVMTQSPLSLPVTLGQPASISCRSSQSLEYGDRYTYLEWYLQRPGQSPRLLIYGVSNRFSGVPDRFSGSGSGTDFTLKISRVEAEDVGVYYCFQATHDPNTFGQGTKLEIK
notes: Humanized, PTM de-risked, human IgG1; also called 31D9B3 VH1.3-VL2.2 hlgG1

target: cyno AMHR2 (cyno); assay: FACS on CHO-K1 cells over-expressing cyno AMHR2

| Binder | binding |
| --- | --- |
| B1 | binds |
| B2 | binds |
| B3 | binds |
